Publication PMC6460792
Results are given in words; binding and its absence hold for the method and conditions named. Some results given as binding are weak or reduced against the parent protein; the word gives no strength.

By UniProt entry, the sequences of proteins in these tests, tags left out. Where a name states a change or a piece, a line headed by the entry shows the natural chain unless it says otherwise. Residues count along the entry.
UniProt P63159: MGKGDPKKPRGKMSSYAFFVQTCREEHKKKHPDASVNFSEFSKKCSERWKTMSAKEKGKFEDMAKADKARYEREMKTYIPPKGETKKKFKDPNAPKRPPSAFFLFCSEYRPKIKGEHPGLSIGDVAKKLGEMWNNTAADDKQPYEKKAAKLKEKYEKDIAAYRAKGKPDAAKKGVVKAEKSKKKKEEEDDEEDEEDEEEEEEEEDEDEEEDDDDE
UniProt Q15109, residues 23-342: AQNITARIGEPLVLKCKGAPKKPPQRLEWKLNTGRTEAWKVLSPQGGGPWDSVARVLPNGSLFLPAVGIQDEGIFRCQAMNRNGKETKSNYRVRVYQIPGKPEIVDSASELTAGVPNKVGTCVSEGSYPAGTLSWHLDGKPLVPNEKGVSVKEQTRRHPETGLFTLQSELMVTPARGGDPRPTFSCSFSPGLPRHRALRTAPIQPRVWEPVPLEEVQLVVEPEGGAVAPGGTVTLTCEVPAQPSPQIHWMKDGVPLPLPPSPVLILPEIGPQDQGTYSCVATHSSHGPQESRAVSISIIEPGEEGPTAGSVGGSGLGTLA

Biological target: Recombinant HMGB1 (disulfide isoform), full length high mobility group box 1 protein (UniProt P63159)
Assay: ELISA; HMGB1 coated on Maxisorp plate (60 nM solution); human RAGE-Fc (0.25 nM) incubated with or without box A (10 uM) in PBS with 0.05% Tween 20 at room temperature for 30 min, then added to the plate for 100 min; detected with anti-human HRP antibody, OD 450 nm; both purified

Substance: Recombinant human RAGE-Fc chimera protein (from UniProt Q15109 23-342) (Fc fusion)
- binding: binds
